In patent US7405063B2, “Biooxidation capabilities of Candida sp” (Cognis Corporation, priority 2000, dated 2008):

What follows are compounds tested on C. tropicalis H5343 (assay: Bioconversion process (Phase 1), shake flask, NMR analysis). Details: Phase I screening summary.
Format: cell-based
In the case of `CCCCCCC(O)CCCCCCCCCCC(=O)O` (centres unmarked) [12-Hydroxystearic acid], the “Reaction or Major Reaction Product” value is reported as 7-hydroxyoctadecanedioic acid.
With `C=CCCCCCCCCCCCC` [C14 a-Olefin, 1-tetradecene] the “Reaction or Major Reaction Product” value was “(ω,ω-1) Dihydroxy Fatty Acid”.
In the case of `C=CCCCCCCCCCC` [Dodecene], the “Reaction or Major Reaction Product” value is reported as “(ω,ω-1) Dihydroxy Fatty Acid”.
With `C/C=C/CCCCCC` [trans-2-nonene] the “Reaction or Major Reaction Product” value was 2-enoic acid (recovery low).
For `CCCCCC/C=C/CCCCCC` [trans-7-tetradecene], the “Reaction or Major Reaction Product” value was 7-trans-tetradecenedioic acid.

Some results come without the dose or concentration used.
